Source: PMC3748026
These are yes or no findings as the source states them, for the method shown. Some results given as binding are weak or reduced against the parent protein; the word gives no strength. Where a sequence is shown, tags or fusion partners need not be part of it.

Amino acid sequences for entries named in this document (tags omitted). A change or cut given only in a name is not applied to a line headed by its entry.
UniProt P97310: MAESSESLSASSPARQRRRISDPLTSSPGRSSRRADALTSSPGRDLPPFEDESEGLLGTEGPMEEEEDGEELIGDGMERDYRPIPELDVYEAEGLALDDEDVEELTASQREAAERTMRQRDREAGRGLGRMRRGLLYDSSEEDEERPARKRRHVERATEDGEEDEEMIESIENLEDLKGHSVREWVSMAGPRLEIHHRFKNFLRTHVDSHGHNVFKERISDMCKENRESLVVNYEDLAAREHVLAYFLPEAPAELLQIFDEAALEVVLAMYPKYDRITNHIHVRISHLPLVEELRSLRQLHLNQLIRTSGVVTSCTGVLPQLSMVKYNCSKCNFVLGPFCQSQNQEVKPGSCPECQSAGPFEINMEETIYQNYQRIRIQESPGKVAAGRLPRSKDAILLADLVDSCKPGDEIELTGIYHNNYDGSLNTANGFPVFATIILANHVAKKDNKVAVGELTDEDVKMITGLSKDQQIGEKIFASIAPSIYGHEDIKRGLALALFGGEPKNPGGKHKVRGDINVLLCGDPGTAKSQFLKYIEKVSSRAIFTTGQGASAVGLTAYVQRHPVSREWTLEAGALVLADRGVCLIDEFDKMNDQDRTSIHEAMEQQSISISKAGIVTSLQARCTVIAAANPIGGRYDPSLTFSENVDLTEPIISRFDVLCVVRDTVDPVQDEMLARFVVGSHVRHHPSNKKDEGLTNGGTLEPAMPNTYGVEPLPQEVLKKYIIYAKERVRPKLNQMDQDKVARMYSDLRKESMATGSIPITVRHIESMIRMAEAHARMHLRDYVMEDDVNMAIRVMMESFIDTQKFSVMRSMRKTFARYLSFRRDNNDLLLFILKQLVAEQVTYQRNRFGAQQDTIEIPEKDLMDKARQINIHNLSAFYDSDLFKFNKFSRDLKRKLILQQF
UniProt Q61881: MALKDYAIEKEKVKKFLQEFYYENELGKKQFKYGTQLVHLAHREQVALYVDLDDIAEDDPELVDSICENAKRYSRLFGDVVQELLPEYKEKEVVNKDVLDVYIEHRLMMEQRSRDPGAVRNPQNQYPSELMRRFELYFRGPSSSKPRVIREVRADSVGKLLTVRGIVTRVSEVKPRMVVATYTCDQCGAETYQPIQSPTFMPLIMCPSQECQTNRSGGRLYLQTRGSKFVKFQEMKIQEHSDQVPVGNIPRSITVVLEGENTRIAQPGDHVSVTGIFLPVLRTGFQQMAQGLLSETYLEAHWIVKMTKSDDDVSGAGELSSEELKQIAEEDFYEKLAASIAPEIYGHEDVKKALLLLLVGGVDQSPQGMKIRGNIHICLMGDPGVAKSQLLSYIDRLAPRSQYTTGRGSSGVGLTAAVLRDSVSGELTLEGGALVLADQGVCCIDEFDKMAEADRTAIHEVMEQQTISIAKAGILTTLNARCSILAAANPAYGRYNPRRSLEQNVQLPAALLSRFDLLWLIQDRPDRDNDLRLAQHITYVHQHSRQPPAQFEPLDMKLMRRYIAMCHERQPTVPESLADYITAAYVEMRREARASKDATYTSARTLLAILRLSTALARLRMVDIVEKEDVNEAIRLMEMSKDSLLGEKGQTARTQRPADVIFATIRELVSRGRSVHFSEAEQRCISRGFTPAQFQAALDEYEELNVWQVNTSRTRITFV

T1: mouse Mcm5-His6-Flag (mouse) (UniProt P49718)
T1 sequence: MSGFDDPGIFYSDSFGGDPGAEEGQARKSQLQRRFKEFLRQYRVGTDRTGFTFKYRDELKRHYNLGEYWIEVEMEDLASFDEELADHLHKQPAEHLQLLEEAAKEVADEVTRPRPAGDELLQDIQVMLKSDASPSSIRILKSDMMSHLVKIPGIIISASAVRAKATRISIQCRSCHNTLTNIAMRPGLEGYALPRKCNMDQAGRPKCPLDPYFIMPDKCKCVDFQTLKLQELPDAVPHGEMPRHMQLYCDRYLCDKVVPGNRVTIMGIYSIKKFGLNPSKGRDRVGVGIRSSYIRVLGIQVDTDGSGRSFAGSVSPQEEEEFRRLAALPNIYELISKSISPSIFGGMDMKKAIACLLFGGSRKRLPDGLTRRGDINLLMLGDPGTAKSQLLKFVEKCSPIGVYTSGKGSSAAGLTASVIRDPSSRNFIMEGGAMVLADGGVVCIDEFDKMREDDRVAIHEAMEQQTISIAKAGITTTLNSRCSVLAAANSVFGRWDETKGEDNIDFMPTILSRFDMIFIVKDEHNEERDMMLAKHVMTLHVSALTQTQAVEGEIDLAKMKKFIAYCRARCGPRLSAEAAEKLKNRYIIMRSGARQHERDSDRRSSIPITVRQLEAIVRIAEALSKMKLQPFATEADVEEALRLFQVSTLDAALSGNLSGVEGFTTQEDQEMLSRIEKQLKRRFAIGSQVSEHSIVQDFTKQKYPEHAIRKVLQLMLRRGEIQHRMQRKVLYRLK


Columns and labels:
[1] = target: T2, mouse Mcm2∼7 complex (Mcm2/3/4/5/6/7), Flag tag on Mcm5 (mouse) (UniProt P97310+P25206+P49717+P49718+P97311+Q61881); test: co-sedimentation; Mcm2∼7 and human primase, 15-35% glycerol gradient with 1 mM ATP; data not shown; both purified
[2] = target: T2, mouse Mcm2∼7 complex (Mcm2/3/4/5/6/7), Flag tag on Mcm5 (mouse); test: native gel or EMSA; proteins alone or mixed, 25 mM Tris-HCl pH 7.5, 5 mM magnesium acetate, 20 mM 2-mercaptoethanol, 0.01% Triton X-100, 1 mM ATP, 30°C 15 min; 5% native PAGE at 4°C, silver staining; no DNA; both purified
[3] = target: T2, mouse Mcm2∼7 complex (Mcm2/3/4/5/6/7), Flag tag on Mcm5 (mouse); test: co-IP; purified Mcm2∼7 (Flag tag on Mcm5) held on anti-Flag M2 antibody agarose beads, mixed with purified primase, His-p48 or GINS, with or without an oligonucleotide, GINS or DNase I; 50 mM Tris-HCl pH 7.5, 100 mM sodium acetate, 5 mM magnesium acetate, 1 mM ATP, 10% glycerol, 0.01% Triton X-100; 2 h at 4°C; eluted with 0.1 M glycine pH 2.8 or boiled; silver or SYPRO staining and Western blotting; both purified
[4] = target: T1, mouse Mcm5-His6-Flag (mouse); test: co-purification; six mouse Mcm subunits co-expressed in insect cells; nickel-agarose, anti-Flag M2 antibody agarose (Flag on Mcm5), glycerol gradient sedimentation

| Binder | binding [1] | binding [2] | binding [3] | binding [4] |
| --- | --- | --- | --- | --- |
| human DNA primase p48/p58 hetero-dimeric complex (His-tagged p58, non-tagged p48) (complex, UniProt P49642 1-420; P49643 1-509) chain 1: METFDPTELPELLKLYYRRLFPYSQYYRWLNYGGVIKNYFQHREFSFTLKDDIYIRYQSFNNQSDLEKEMQKMNPYKIDIGAVYSHRPNQHNTVKLGAFQAQEKELVFDIDMTDYDDVRRCCSSADICPKCWTLMTMAIRIIDRALKEDFGFKHRLWVYSGRRGVHCWVCDESVRKLSSAVRSGIVEYLSLVKGGQDVKKKVHLSEKIHPFIRKSINIIKKYFEEYALVNQDILENKESWDKILALVPETIHDELQQSFQKSHNSLQRWEHLKKVASRYQNNIKNDKYGPWLEWEIMLQYCFPRLDINVSKGINHLLKSPFSVHPKTGRISVPIDLQKVDQFDPFTVPTISFICRELDAISTNEEEKEENEAESDVKHRTRDYKKTSLAPYVKVFEHFLENLDKSRKGELLKKSDLQKDF chain 2: MEFSGRKWRKLRLAGDQRNASYPHCLQFYLQPPSENISLIEFENLAIDRVKLLKSVENLGVSYVKGTEQYQSKLESELRKLKFSYRENLEDEYEPRRRDHISHFILRLAYCQSEELRRWFIQQEMDLLRFRFSILPKDKIQDFLKDSQLQFEAISDEEKTLREQEIVASSPSLSGLKLGFESIYKIPFADALDLFRGRKVYLEDGFAYVPLKDIVAIILNEFRAKLSKALALTARSLPAVQSDERLQPLLNHLSHSYTGQDYSTQGNVGKISLDQIDLLSTKSFPPCMRQLHKALRENHHLRHGGRMQYGLFLKGIGLTLEQALQFWKQEFIKGKMDPDKFDKGYSYNIRHSFGKEGKRTDYTPFSCLKIILSNPPSQGDYHGCPFRHSDPELLKQKLQSYKISPGGISQILDLVKGTHYQVACQKYFEMIHNVDDCGFSLNHPNQFFCESQRILNGGKDIKKEPIQPETPQPKPSVQKTKDASSALASLNSSLEMDMEGLEDYFSEDS | binds | binds weakly | binds | – |
| mouse Mcm3 (protein, UniProt P25206 1-812) MAGTVVLDDVELREAQRDYLDFLDDEEDQGIYQNKVRELISDNQYRLIVSVNDLRRKNEKRANRLLNNAFEELVAFQRALKDFVASIDATYAKQYEEFYIGLEGSFGSKHVSPRTLTSCFLSCVVCVEGIVTKCSLVRPKVVRSVHYCPATKKTIERRYSDLTTLVAFPSSSVYPTKDEENNPLETEYGLSVYKDHQTITIQEMPEKAPAGQLPRSVDVILDDDLVDKVKPGDRIQVVGTYRCLPGKKGCYTSGTFRTVLIACNVKQMSKDIQPAFSADDIAKIKKFSKTRSKDVFEQLARSLAPSIHGHDYVKKAILCLLLGGVERELENGSHIRGDINILLIGDPSVAKSQLLRYVLCTAPRAIPTTGRGSSGVGLTAAVTTDQETGERRLEAGAMVLADRGVVCIDEFDKMSDMDRTAIHEVMEQGRVTIAKAGIHARLNARCSVLAAANPVYGRYDQYKTPMENIGLQDSLLSRFDLLFIMLDQMDPEQDREISDHVLRMHQYRAPGEQDGDALPLGSSVDILATDDPDFTQDDQQDTRIYEKHDSLLHGTKKKKEKMVSAAFMKKYIHVAKIIKPTLTQESAAYIAEEYSRLRSQDSMSSDTARTSPVTARTLETLIRLATAHAKARMSKTVDLQDAEEAVELVQYAYFKKVLEKEKKRKKASEDESDLEDEEEKSQEDTEQKRKRRKTHAKDGESYDPYDFSEAETQMPQVHTPKTDDSQEKTDDSQETQDSQKVELSEPRLKAFKAALLEVFQEAHEQSVGMLHLTESINRNREEPFSSEEIQACLSRMQDDNQVMVSEGIVFLI | – | – | – | binds |

Second part, the binder after the results:

| binding [1] | binding [2] | binding [3] | binding [4] | Binder |
| --- | --- | --- | --- | --- |
| – | – | – | binds | mouse His6-Mcm4 (protein, UniProt P49717 1-862) MSSPASTPSRRSSRRGRVTPTQSLRSEESRSSPNRRRRGEDSSTGELLPMPTSPGADLQSPPAQNALFSSPPQMHSLAIPLDFDVSSPLTYGTPSSRVEGTPRSGVRGTPVRQRPDLGSARKGLQVDLQSDGAAAEDIVPSEQSLGQKLVIWGTDVNVATCKENFQRFLQCFTDPLAKEEENVGIDITQPLYMQQLGEINITGEPFLNVNCEHIKSFSKNLYRQLISYPQEVIPTFDMAVNEIFFDRYPDSILEHQIQVRPFNALKTKSMRNLNPEDIDQLITISGMVIRTSQLIPEMQEAFFQCQVCAHTTRVEIDRGRIAEPCSCVHCHTTHSMALIHNRSFFSDKQMIKLQESPEDMPAGQTPHTIVLFAHNDLVDKVQPGDRVNVTGIYRAVPIRVNPRVSNVKSVYKTHIDVIHYRKTDAKRLHGLDEEAEQKLFSEKRVKLLKELSRKPDIYERLASALAPSIYEHEDIKKGILLQLFGGTRKDFSHTGRGKFRAEINILLCGDPGTSKSQLLQYVYNLVPRGQYTSGKGSSAVGLTAYVMKDPETRQLVLQTGALVLSDNGICCIDEFDKMNESTRSVLHEVMEQQTLSIAKAGIICQLNARTSVLAAANPIESQWNPKKTTIENIQLPHTLLSRFDLIFLMLDPQDEAYDRRLAHHLVSLYYQSEEQVEEEFLDMAVLKDYIAYAHSTIMPRLSEEASQALIEAYVNMRKIGSSRGMVSAYPRQLESLIRLAEAHAKVRFSNKVEAIDVEEAKRLHREALKQSATDPRTGIVDISILTTGMSATSRKRKEELAEALRKLILSKGKTPALKYQQLFEDIRGQSDTAITKDMFEEALRALADDDFLTVTGKTVRLL |
| – | – | – | binds | mouse Mcm6 (protein, UniProt P97311 1-821) MDLAAAAEPGAGSQHPEVRDEVAEKCQKLFLDFLEEFQGSDGEIKYLQFAEELIRPERNTLVVSFADLEQFNQQLSTTIQEEFYRVYPYLCRALKTFVKDRKEIPFAKDFYVAFQDLPTRHKIRELTSSRIGLLTRISGQVVRTHPVHPELVSGTFLCLDCQTVIKDVEQQFKYTQPNICRNPVCANRKRFLLDTNKSRFVDFQKVRIQETQAELPRGSIPRSLEVILRAEAVESAQAGDRCDFTGALIVVPDVSKLSTPGARAETNSRVSGADGYETEGIRGLRALGVRDLSYRLVFLACHVAPTNPRFGGKELRDEEQTAESIKNQMTVKEWEKVFEMSQDKNLYHNLCTSLFPTIHGNDEVKRGVLLMLFGGVPKTTGEGTSLRGDINVCIVGDPSTAKSQFLKHVDEFSPRAVYTSGKASSAAGLTAAVVRDEESHEFVIEAGALMLADNGVCCIDEFDKMDMRDQVAIHEAMEQQTISITKAGVKATLNARTSILAAANPVSGHYDRSKSLKQNINLSAPIMSRFDLFFILVDECNEVTDYAIARRIVDLHSRIEESIDRVYSLDDIRRYLLFARQFKPKISKESEDFIVEQYKRLRQRDGSGVTKSSWRITVRQLESMIRLSESMARMHCCDEVQPKHVKEAFRLLNKSIIRVETPDVNLDQEEEIQMETDEGQGGVNGHADSPAPVNRFNGSSEDASQETVSKPSLRLGFAEYCRISNLIVLHLRKMEEEEDESALKRSELVNWYLKEIESEIDSEEELINKKTIIEKVVHRLTHYDHVLIELTQAGLKGSSEGSESYEEDPYLVVNPNYLLED |
